{"source": "PubChem BioAssay AID1347076", "about": "(National Center for Advancing Translational Sciences (NCATS), 2019)", "note": "In all, about 400,000 compounds went through this assay and about 13,000 (3.2%) were called active. Inconclusive means that the source gave no clear call. Such entries were picked first, then a sample of the others. Calls follow the shape of the dose curve; as a rule, active = well fitted cell-killing curve with a large enough effect; inconclusive = small, poorly fitted or top-dose-only effect, or effect the other way; inactive = flat fitted curve, though single readings scatter. A potency beside an inconclusive call is a rough fit, not a confirmed value. % is scaled to controls: 0 for no effect and ±100 for the full control effect; potency is read from the fitted curve at half-maximal effect.", "data": [{"assay": "qHTS assay for MDR1-selective chemotherapeutics: Primary screen using the drug-selected MDR subline cells KB-V1; also: nearly all actives have a fitted effect of over 60% in size", "details": "KB-V1 MDR cells viability, CellTiter-Glo, 72 h; activity change, negative = cytotoxicity: at 46.1 µM (top of the series)", "in_short": "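Luminescent ATP read-out (CellTiter-Glo, 10 min) measures survival of drug-selected KB-V1 MDR cells after 72 h, 37 degrees C compound exposure. Medium: phenol-red-free DMEM, 10% FBS. Values from fitted concentration-response curves.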", "values": [{"smiles": "O=S(=O)(Nc1nccs1)c1ccc(NS(=O)(=O)c2c(F)cc(F)c(Cl)c2F)cc1", "activity change, negative = cytotoxicity": "inactive: 55.9%"}, {"smiles": "O=C(NCc1cccc(C(F)(F)F)c1)c1[nH]c(C(F)(F)F)nc1-c1ccccc1", "Potency": "inconclusive: 29.1 µM [cytotoxic, single point]"}, {"smiles": "CC1(C(=O)N2CCN(c3ccc([N+](=O)[O-])cc3)CC2)CC1(Cl)Cl", "note": "(centres undefined)", "Potency": "inconclusive: 7.31 µM [cytotoxic, partial curve, poor fit]"}, {"smiles": "C=CCN(c1ccccc1)S(=O)(=O)c1cccc(C(=O)Nc2ncccc2C)c1", "Potency": "inconclusive: 20.6 µM [cytotoxic, single point]"}, {"smiles": "NC(=O)CSc1nnc(-c2ccco2)n1-c1ccc(F)cc1", "activity change, negative = cytotoxicity": "inactive: -11.6%"}, {"smiles": "CC(=O)NN1C(=O)c2ccc(Oc3ccc([N+](=O)[O-])cc3)cc2C1=O", "Potency": "inconclusive: 11.6 µM [rising, partial curve]"}, {"smiles": "Cc1cc(C)n(Cc2ccc(C(=O)Nc3cccc(Br)c3)o2)n1", "Potency": "inconclusive: 8.2 µM [cytotoxic, partial curve]"}, {"smiles": "Cc1nn(Cc2ccc(Cl)c(Cl)c2)c(C)c1NC(=O)c1cc(CC(C)C)on1", "Potency": "inconclusive: 23.1 µM [cytotoxic, single point]"}, {"smiles": "O=C(Nc1nncs1)C(Sc1ccccc1)c1ccccc1", "note": "(centres undefined)", "Potency": "active: 20.6 µM"}, {"smiles": "COc1ccc(C2c3c(oc4ccccc4c3=O)C(=O)N2CC2CCCO2)cc1", "note": "(centres undefined)", "Potency": "inconclusive: 1.84 µM [cytotoxic, full curve]"}, {"smiles": "CC1CCCC(C)N1C(=O)CSCc1ccc(Cl)cc1", "note": "(centres undefined)", "Potency": "active: 18.4 µM"}, {"smiles": "COc1ccc(/C=N/NC(=O)c2cccc(C(=O)N/N=C/c3ccc(OC)c(OC)c3)n2)cc1OC", "activity change, negative = cytotoxicity": "inactive: 0.635%"}, {"smiles": "Cn1c(SCc2ccc(Br)cc2)nnc1-c1ccccn1", "activity change, negative = cytotoxicity": "inconclusive: 25.7%"}, {"smiles": "O=C1C[C@H]2C=CCc3cccc(c32)CN1Cc1ccccc1", "Potency": "inconclusive: 18.4 µM [cytotoxic, single point]"}, {"smiles": "CCOC(=O)c1cnc(-n2nc(C)cc2C)nc1Nc1cccc(C(C)=O)c1", "Potency": "inconclusive: 1.84 µM [cytotoxic, full curve, poor fit]"}, {"smiles": "COc1cc(C(=O)NC(=S)NNC(=O)c2ccc3c(c2)OCO3)cc(OC)c1OC", "Potency": "inconclusive: 4.61 µM [cytotoxic, full curve, poor fit]"}, {"smiles": "Cc1cc(C(=O)CSc2nnnn2C)c(C)n1-c1cccc(F)c1", "Potency": "inconclusive: 32.6 µM [cytotoxic, single point]"}, {"smiles": "COc1ccc(NC(=O)C(=O)N/N=C(\\C)CC(=O)Nc2cc(C)ccn2)c(OC)c1", "activity change, negative = cytotoxicity": "inconclusive: 30.1%"}, {"smiles": "COc1ccc(NC(=O)[C@H](C)NC(=O)C2CCN(S(=O)(=O)c3ccc(C)cc3)CC2)cc1OC", "activity change, negative = cytotoxicity": "inactive: 25.5%"}]}]}
